# Measurements reported in the supplement of paper PMC10727501.
# The other results are listed elsewhere or left out. Single values are uncertain here, since repeats match poorly.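 Free-swimming zebrafish larvae were scored for O-bend response probability to dark flashes (naive: first five; training: remaining flashes of four 60-flash blocks; test: later 60-flash block) and for turning toward alternating leftward/rightward LED motion (OMR). Six treated larvae were compared with sixty 0.1% DMSO controls; |SSMD|≥2 defined a hit.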
# System: Danio rerio larvae (5 dpf, TLF)
# Assay: Prob-Test (SSMD vs DMSO vehicle); higher = higher than vehicle (e.g. higher dark-flash O-bend response probability, or better optomotor performance)
# Conditions: 10 µM; pre-incubation: 30-90 min
row,Structure (SMILES),Prob-Test
1,Cl.O=C1CC[C@@]2(O)[C@H]3Cc4ccc(O)c5c4[C@@]2(CCN3CC2CC2)[C@H]1O5 [Naltrexone HCl],-0.893
2,CN1CCc2cccc3c2C1Cc1ccc(O)c(O)c1-3.CN1CCc2cccc3c2C1Cc1ccc(O)cc1-3 (stereo not drawn) [R-(-)-Apomorphine HCl Hemihydrate],-0.885
3,C#C[C@@]1(O)C=C[C@H]2[C@@H]3CCC4=CC(=O)CC[C@@H]4[C@@H]3CC[C@@]21CC [Gestodene],-0.922
4,Cc1cccc(C)c1NC1=NCCCS1.Cl [Xylazine HCl],-0.831
5,CC(C)NCC(O)c1ccccc1Cl.Cl (stereo not drawn) [Clorprenaline HCl],0.216
6,CC(O)(CS(=O)(=O)c1ccc(F)cc1)C(=O)Nc1ccc(C#N)c(C(F)(F)F)c1 (stereo not drawn) [Bicalutamide],-0.0391
7,CC[C@@H]1[C@@H](C)O[C@@](O)([C@@H](C)[C@H](O)[C@H](C)[C@H]2OC(=O)/C=C/C=C/[C@H](C)[C@H]([C@@H](C)[C@@H](O)[C@H](C)[C@@]3(O)C[C@@H](O[C@H]4C[C@H](O)[C@H](O)[C@H](C)O4)[C@H](CC)[C@@H](C)O3)OC(=O)/C=C/C=C/[C@H]2C)C[C@H]1O[C@H]1C[C@H](O)[C@H](O)[C@H](C)O1 [Elaiophylin],0.0269
8,CCOc1ccccc1-n1c(C(C)N2CCN(C(=O)COc3ccc(Cl)cc3)CC2)nc2ccccc2c1=O (stereo not drawn) [Erastin],-0.684
9,CC(C)N(CCC(C(N)=O)(c1ccccc1)c1ccccn1)C(C)C.O=P(O)(O)O (stereo not drawn) [Disopyramide Phosphate],0.455
10,Cc1cc(O)ccc1Cl [Chlorocresol],-0.244
11,Cc1cccc([C@H](C)c2cnc[nH]2)c1C.Cl [Dexmedetomidine HCl (Precedex)],-1.61
12,C=C1C[C@@H]2[C@@H](CC[C@@]3(C)C(=O)CC[C@@H]23)[C@@]2(C)C=CC(=O)C=C12 [Exemestane],-0.0258
13,C[N+]1(C)[C@@H]2C[C@H](OC(=O)[C@H](CO)c3ccccc3)C[C@H]1[C@@H]1O[C@@H]12.[Br-] [Methscopolamine],0.106
14,c1cc2c(cc1[C@H]1OC[C@H]3[C@H]1CO[C@@H]3c1ccc3c(c1)OCO3)OCO2 [Sesamin],-1.95
15,O=c1[nH]c2ccccc2n1CCCN1CCC(n2c(=O)[nH]c3cc(Cl)ccc32)CC1 [Domperidone],-0.0565
16,CCNCC.O=S(=O)(O)c1cc(O)ccc1O [Ethamsylate],-0.504
17,C#C[C@@]1(O)CC[C@H]2[C@@H]3CCC4=CC(=O)CC[C@]4(C)[C@@H]3CC[C@@]21C [Ethisterone],-0.0493
18,CN1C2CCC1CC(OC(=O)[C@H](CO)c1ccccc1)C2 (stereo partly drawn) [Hyoscyamine],-0.444
19,O=C(O)CNC(=O)c1c(O)c2ccccc2n(Cc2ccccc2)c1=O,0.153
20,C[N+](C)(C)CCCCCCCCCC[N+](C)(C)C.[Br-].[Br-] [Decamethonium Bromide],-0.468
21,CC[C@@H](C(N)=O)N1CCCC1=O [Levetiracetam],-0.0333
22,NCC1(CC(=O)O)CCCCC1 [Gabapentin (Neurontin)],0.719
23,Cc1cc(C(=O)CN2CCCC2)c(C)n1-c1ccc(F)cc1,0.992
24,C[C@H]1CCC/C=C/[C@@H]2C[C@H](O)C[C@H]2[C@H](O)/C=C/C(=O)O1 [Brefeldin A],-1.34
25,CN(C)C(=O)C(CCN1CCC(O)(c2ccc(Cl)cc2)CC1)(c1ccccc1)c1ccccc1.Cl [Loperamide HCl],-0.86
26,CN1C(=O)CCS(=O)(=O)C1c1ccc(Cl)cc1 (stereo not drawn) [Chlormezanone],0.44
27,C[C@]12CCC(=O)C=C1C=C[C@@H]1[C@@H]2CC[C@@]2(C)[C@H]1CC[C@@]2(O)CCC(=O)O.[K] [Potassium Canrenoate],0.201
28,C[C@]12CC[C@H](O)C[C@@H]1CC[C@@H]1[C@H]2CC[C@]2(C)C(=O)CC[C@@H]12 [Epiandrosterone],-1.77

# 7 of the compounds above, tab-delimited.
row	Structure (SMILES)	Prob-Test
4	Cc1cccc(C)c1NC1=NCCCS1.Cl [Xylazine HCl]	-0.831
5	CC(C)NCC(O)c1ccccc1Cl.Cl (stereo not drawn) [Clorprenaline HCl]	0.216
6	CC(O)(CS(=O)(=O)c1ccc(F)cc1)C(=O)Nc1ccc(C#N)c(C(F)(F)F)c1 (stereo not drawn) [Bicalutamide]	-0.0391
7	CC[C@@H]1[C@@H](C)O[C@@](O)([C@@H](C)[C@H](O)[C@H](C)[C@H]2OC(=O)/C=C/C=C/[C@H](C)[C@H]([C@@H](C)[C@@H](O)[C@H](C)[C@@]3(O)C[C@@H](O[C@H]4C[C@H](O)[C@H](O)[C@H](C)O4)[C@H](CC)[C@@H](C)O3)OC(=O)/C=C/C=C/[C@H]2C)C[C@H]1O[C@H]1C[C@H](O)[C@H](O)[C@H](C)O1 [Elaiophylin]	0.0269
8	CCOc1ccccc1-n1c(C(C)N2CCN(C(=O)COc3ccc(Cl)cc3)CC2)nc2ccccc2c1=O (stereo not drawn) [Erastin]	-0.684
9	CC(C)N(CCC(C(N)=O)(c1ccccc1)c1ccccn1)C(C)C.O=P(O)(O)O (stereo not drawn) [Disopyramide Phosphate]	0.455
10	Cc1cc(O)ccc1Cl [Chlorocresol]	-0.244
